Experimental data published in the supplement of paper PMC7830784.
Counter-ions that a name gives are not always drawn. The list shows a part of the results. Repeats in this data set agree poorly, so a single value says little.

Each molecule was assayed on Brugia pahangi adult female (assay: motility inhibition on day 3 relative to DMSO vehicle; higher = more active). Details: 10 µM; 3 days.

Row | Compound | motility inhibition on day 3
1 | O=C([O-])Cc1ccccc1.[Na+] [sodium phenylacetate] | 1.33%
2 | CCN(CC)C(=O)N[C@H]1C=C2c3cccc4[nH]cc(c34)C[C@H]2N(C)C1 [R(+)-Lisuride hydrogen maleate] | 2.36%
3 | O=c1[nH]c2ccccc2n1CCCN1CCC(n2c(=O)[nH]c3cc(Cl)ccc32)CC1 [Domperidone] | 15.5%
4 | O=C([O-])c1ccccc1-c1c2cc(Br)c(=O)cc-2oc2[c]([Hg+])c([O-])c(Br)cc12.[Na+].[Na+].[OH-] [merbromin] | 66.1%
5 | CC(C)[N+](C)(CCC(C(N)=O)(c1ccccc1)c1ccccc1)C(C)C [isopropamide iodide] | 24%
6 | C#C[C@]1(O)CC[C@H]2[C@@H]3CCC4=CC(=O)CC[C@]4(C)[C@H]3CC[C@@]21C [ethisterone] | 13.8%
7 | CC(C)CC(N(C)C)C1(c2ccc(Cl)cc2)CCC1 (stereo not given) [sibutramine hydrochloride] | 25.2%
8 | CNC(=O)c1cc(C#N)cc(C)c1NC(=O)c1cc(Br)nn1-c1ncccc1Cl [Cyantraniliprole] | < 0%
9 | CCOc1ccc2c3c1O[C@H]1[C@@H](O)C=C[C@H]4[C@@H](C2)N(C)CC[C@@]341 [Ethylmorphine] | 3.41%
10 | C=CC[C@]1(O)CC[C@H]2[C@@H]3CCC4=CC(=O)CCC4=C3C=C[C@@]21C [altrenogest] | 34.9%
11 | C=C[C@H]1CN2CC[C@H]1C[C@@H]2[C@@H](O)c1ccnc2ccccc12 [cinchonine] | 23.7%
12 | C=CCN=C=S [allylisothiocyanate] | 4.08%
13 | CC(Cc1ccc(O)cc1)NCC(O)c1cc(O)cc(O)c1 (stereo not given) [fenoterol hydrobromide] | 5.3%
14 | C1CCc2nnnn2CC1 [pentetrazole] | < 0%
15 | COc1ccc2c(c1)[C@]13CCCC[C@@H]1[C@H](C2)N(C)CC3 [dextromethorphan hydrobromide] | 32.2%
16 | C=C[C@H]1CN2CC[C@H]1C[C@H]2[C@H](O)c1ccnc2ccccc12 [cinchonidine] | 3.31%
17 | CN1[C@@H]2CC[C@H]1C[C@@H](OC(=O)[C@H](CO)c1ccccc1)C2 [hyoscyamine] | 18.2%
18 | Nc1nc(N)nc(NC2CC2)n1 [cyromazine] | 12.1%
19 | Cc1ccc(-c2nc3ccc(C)cn3c2CC(=O)N(C)C)cc1 [zolpidem] | 3.78%
20 | O=[N+]([O-])O[C@@H]1CO[C@H]2[C@@H]1OC[C@@H]2O [isosorbide mononitrate] | 1.81%
21 | N[C@@H](Cc1ccc(N(CCCl)CCCl)cc1)C(=O)O [melphalan] | < 0%
22 | CC(C)N(CCC(C(N)=O)(c1ccccc1)c1ccccn1)C(C)C (stereo not given) [Disopyramide phosphate] | 1.01%
23 | N=C(N)NN [Aminoguanidine hemisulfate] | 10%
24 | C[C@H](N)[C@H](O)c1ccc(O)c(O)c1 [levonordefrin] | 53.6%

Ordered by length of the SMILES (ascending): 3 of the compounds above
Row | Compound | motility inhibition on day 3
7 | CC(C)CC(N(C)C)C1(c2ccc(Cl)cc2)CCC1 (stereo not given) [sibutramine hydrochloride] | 25.2%
20 | O=[N+]([O-])O[C@@H]1CO[C@H]2[C@@H]1OC[C@@H]2O [isosorbide mononitrate] | 1.81%
2 | CCN(CC)C(=O)N[C@H]1C=C2c3cccc4[nH]cc(c34)C[C@H]2N(C)C1 [R(+)-Lisuride hydrogen maleate] | 2.36%

Next compounds:

Row | Compound | motility inhibition on day 3
25 | COc1ccc(CN2CCNCC2)c(OC)c1OC [trimetazidine dihydrochloride] | 3.42%
26 | CC[C@H]1CN2CC[C@H]1C[C@@H]2[C@@H](O)c1ccnc2ccc(OC)cc12 [hydroquinidine] | < 0%
27 | C=C[C@H]1CN2CC[C@H]1C[C@H]2[C@H](OC(=O)OCC)c1ccnc2ccc(OC)cc12 [quinine ethyl carbonate] | 29.8%
28 | Cc1cc(O)ccc1Cl [chlorocresol] | < 0%
29 | C=C(C)[C@H]1CN[C@H](C(=O)O)[C@H]1CC(=O)O [kainic acid] | 14.6%
30 | CNc1ccc(C(=O)CC(O)CCC(C)C2OC(=O)CC(O)CC(=O)CC(O)CC(O)CC(O)CC(O)CC3(O)CC(O)C(C(=O)OC)C(CC(O[C@@H]4O[C@H](C)[C@@H](O)[C@H](N)[C@@H]4O)/C=C/C=C/C=C/C=C/C=C/C=C/C=C/C2C)O3)cc1.COC(=O)C1C(O)CC2(O)CC(O)CC(O)CC(O)CC(O)CC(=O)CC(O)CC(=O)OC(C(C)CCC(O)CC(=O)c3ccc(N)cc3)C(C)/C=C/C=C/C=C/C=C/C=C/C=C/C=C/C(O[C@@H]3O[C@H](C)[C@@H](O)[C@H](N)[C@@H]3O)CC1O2 (stereo not given in full) [mepartricin] | 6.66%
31 | Cc1ncc(CNC(=O)N(CCCl)N=O)c(N)n1 [nimustine] | < 0%
32 | Oc1cccc2cccnc12 [oxyquinoline] | 93.7%
33 | CC(C)(O)C(Cl)(Cl)Cl [chlorobutanol] | 11.9%
34 | CCCN1C[C@H](CSC)C[C@@H]2c3cccc4[nH]cc(c34)C[C@H]21 [Pergolide methanesulfonate] | < 0%
35 | N.N.[Cl][Pt][Cl] [cisplatin] | 16.2%
36 | COc1ccc2c3c1O[C@H]1[C@@H](O)C=C[C@H]4[C@@H](C2)N(C)CC[C@@]341 [Codeine] | 2.02%
37 | COc1cccc(C2(O)CCCCC2CN(C)C)c1 (stereo not given) [tramadol hydrochloride] | 26.5%
38 | CC(CCc1ccccc1)NC(C)C(O)c1ccc(O)cc1 (stereo not given) [Nylidrin hydrochloride] | 8.36%
39 | CC(=O)OC1CN2CCC1CC2 (stereo not given) [aceclidine hydrochloride] | 6.35%
40 | C#CC1(OC(N)=O)CCCCC1 [Ethinamate] | 7.67%
41 | c1ccc2nc(N3CCNCC3)ccc2c1 [Quipazine dimaleate] | 17.3%
42 | C[N+](C)(C)CCCCCCCCCC[N+](C)(C)C [Decamethonium dibromide] | 10.8%
43 | CN1C[C@H](C(=O)N[C@]2(C)O[C@@]3(O)[C@@H]4CCCN4C(=O)[C@H](Cc4ccccc4)N3C2=O)C[C@@H]2c3cccc4[nH]cc(c34)C[C@H]21 [Dihydroergotamine methanesulfonate] | < 0%
44 | C[N+]1(C)[C@@H]2CC[C@H]1C[C@@H](OC(=O)C(CO)c1ccccc1)C2 (stereo not given in full) [methylatropine nitrate] | 0.151%
45 | NCCc1cc(O)c(O)cc1O [oxidopamine hydrochloride] | 59.2%
46 | N#Cc1nn(-c2c(Cl)cc(C(F)(F)F)cc2Cl)c(N)c1[S+]([O-])C(F)(F)F (stereo not given) [fipronil] | 10.4%
47 | O=C1C[C@@H]2OCC=C3CN4CC[C@]56c7ccccc7N1[C@H]5[C@H]2[C@H]3C[C@H]46 [strychnine] | 0.852%
48 | CC(C)=CC1C(C(=O)OCc2cccc(Oc3ccccc3)c2)C1(C)C (stereo not given) [phenothrin] | 19.2%

Row | Compound | motility inhibition on day 3
49 | NC(=O)C[S@@+]([O-])C(c1ccccc1)c1ccccc1 [armodafinil] | 9.78%
50 | C[CH2][Hg][S]c1ccccc1C(=O)[O-].[Na+] [thimerosal] | 99.8%
51 | O=C1C=C2C=C[C@@H]3C[C@@]2(O1)[C@H]1CCCCN31 [securinine] | 95%
52 | CCCC(C)C1(CC)C(=O)NC(=S)NC1=O (stereo not given) [thiopental sodium] | 15.4%
53 | O=C(O[C@H]1C[C@H]2CC[C@@H](C1)[N+]21CCCC1)C(O)(c1ccccc1)c1ccccc1 [trospium chloride] | 3.86%
54 | COc1ccc(C(=O)N2CCCC2=O)cc1 [Aniracetam] | 17.4%
55 | CC[C@H](OC(C)=O)C(C[C@H](C)N(C)C)(c1ccccc1)c1ccccc1 [LAAM hydrochloride] | 29.3%
56 | O=C(O)CCCc1ccc(N(CCCl)CCCl)cc1 [chlorambucil] | 55.6%
57 | CC[C@@H](C(N)=O)N1CCCC1=O [Levetiracetam] | 17.7%
58 | Nc1ccncc1 [4-Aminopyridine] | 15.8%
59 | C=CCC1(C(C)CCC)C(=O)NC(=O)NC1=O (stereo not given) [Secobarbital] | 13%
60 | CC[C@H](C)[C@H]1O[C@]2(C=C[C@@H]1C)C[C@@H]1C[C@@H](C/C=C(\C)[C@@H](O[C@H]3C[C@H](OC)[C@@H](O[C@H]4C[C@H](OC)[C@@H](O)[C@H](C)O4)[C@H](C)O3)[C@@H](C)/C=C/C=C3\CO[C@@H]4[C@H](O)C(C)=C[C@@H](C(=O)O1)[C@]34O)O2.CO[C@H]1C[C@H](O[C@H]2[C@H](C)O[C@@H](O[C@@H]3/C(C)=C/C[C@@H]4C[C@@H](C[C@]5(C=C[C@H](C)[C@@H](C(C)C)O5)O4)OC(=O)[C@@H]4C=C(C)[C@@H](O)[C@H]5OC/C(=C\C=C\[C@@H]3C)[C@]54O)C[C@@H]2OC)O[C@@H](C)[C@@H]1O [avermectin b1] | 83.3%
61 | O=[N+]([O-])c1cc([As](=O)(O)O)ccc1O [roxarsone] | 21.5%
62 | CCN1C[C@]2(COC)[C@H](O)C[C@H](OC)[C@@]34[C@@H]5C[C@@]6(O)[C@H](OC(=O)c7ccccc7)[C@@H]5[C@@](OC(C)=O)([C@@H]([C@H](OC)[C@H]23)[C@@H]14)[C@@H](O)[C@@H]6OC [aconitine] | < 0%
63 | C[C@]12CC[C@@H]3c4ccc(OC(=O)N(CCCl)CCCl)cc4CC[C@H]3[C@@H]1CC[C@@H]2O [estramustine] | 43.1%
64 | COc1ccc(O)c(C(C)(C)C)c1.COc1ccc(O)cc1C(C)(C)C [butylated hydroxyanisole] | 7.45%
65 | C[C@@H]1O[C@@H](O[C@H]2C[C@@H](O)[C@]3(CO)[C@H]4[C@H](O)C[C@]5(C)[C@@H](C6=CC(=O)OC6)CC[C@]5(O)[C@@H]4CC[C@]3(O)C2)[C@H](O)[C@H](O)[C@H]1O [ouabain] | 12.1%
66 | [N-]=[N+]=CC(=O)OC[C@H](N)C(=O)O [azaserine] | 16.7%
67 | C[N+]1([O-])[C@@H]2CC[C@H]1C[C@@H](OC(=O)C(CO)c1ccccc1)C2 (stereo not given in full) [atropine oxide] | 12.8%
68 | CN1CC[C@]23c4c5ccc(O)c4O[C@H]2C(=O)CC[C@H]3[C@H]1C5 [Hydromorphone hydrochloride] | 3.71%
69 | N=C1NC(=O)N2CC12 (stereo not given) [imexon] | 6.76%
70 | CC[C@@H](c1cccc(O)c1)[C@@H](C)CN(C)C [tapentadol hydrochloride] | 23.5%
